Data from the supplement of paper PMC10849652.
The list shows a part of the results. Residues, ends and D or L forms follow the SMILES beside them. *: point of attachment. Cbz = O=C(OCc1ccccc1)*

Chains of the proteins cited; added tags and fusions are not shown. Lines headed by an entry give the natural chain unless they say otherwise; changes in a name come on top.
UniProt P03891, whole entry, looked up: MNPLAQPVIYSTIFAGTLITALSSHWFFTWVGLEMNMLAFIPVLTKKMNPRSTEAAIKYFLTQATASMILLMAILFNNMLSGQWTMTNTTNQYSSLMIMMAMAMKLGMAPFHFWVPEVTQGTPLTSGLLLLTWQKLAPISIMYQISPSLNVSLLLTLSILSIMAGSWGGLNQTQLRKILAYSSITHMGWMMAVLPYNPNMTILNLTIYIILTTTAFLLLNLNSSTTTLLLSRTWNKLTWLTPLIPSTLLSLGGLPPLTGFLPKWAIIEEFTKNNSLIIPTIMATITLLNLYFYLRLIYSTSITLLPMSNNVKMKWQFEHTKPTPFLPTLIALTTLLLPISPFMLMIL
UniProt P00414, whole entry, looked up: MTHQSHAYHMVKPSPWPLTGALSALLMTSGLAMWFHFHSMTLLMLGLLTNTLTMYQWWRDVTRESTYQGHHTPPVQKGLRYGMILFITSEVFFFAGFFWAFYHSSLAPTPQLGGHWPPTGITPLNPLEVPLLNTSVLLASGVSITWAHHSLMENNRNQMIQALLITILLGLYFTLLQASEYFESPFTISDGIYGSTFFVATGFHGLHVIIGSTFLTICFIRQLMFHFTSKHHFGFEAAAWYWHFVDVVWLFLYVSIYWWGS
UniProt Q9UKX2, whole entry, looked up: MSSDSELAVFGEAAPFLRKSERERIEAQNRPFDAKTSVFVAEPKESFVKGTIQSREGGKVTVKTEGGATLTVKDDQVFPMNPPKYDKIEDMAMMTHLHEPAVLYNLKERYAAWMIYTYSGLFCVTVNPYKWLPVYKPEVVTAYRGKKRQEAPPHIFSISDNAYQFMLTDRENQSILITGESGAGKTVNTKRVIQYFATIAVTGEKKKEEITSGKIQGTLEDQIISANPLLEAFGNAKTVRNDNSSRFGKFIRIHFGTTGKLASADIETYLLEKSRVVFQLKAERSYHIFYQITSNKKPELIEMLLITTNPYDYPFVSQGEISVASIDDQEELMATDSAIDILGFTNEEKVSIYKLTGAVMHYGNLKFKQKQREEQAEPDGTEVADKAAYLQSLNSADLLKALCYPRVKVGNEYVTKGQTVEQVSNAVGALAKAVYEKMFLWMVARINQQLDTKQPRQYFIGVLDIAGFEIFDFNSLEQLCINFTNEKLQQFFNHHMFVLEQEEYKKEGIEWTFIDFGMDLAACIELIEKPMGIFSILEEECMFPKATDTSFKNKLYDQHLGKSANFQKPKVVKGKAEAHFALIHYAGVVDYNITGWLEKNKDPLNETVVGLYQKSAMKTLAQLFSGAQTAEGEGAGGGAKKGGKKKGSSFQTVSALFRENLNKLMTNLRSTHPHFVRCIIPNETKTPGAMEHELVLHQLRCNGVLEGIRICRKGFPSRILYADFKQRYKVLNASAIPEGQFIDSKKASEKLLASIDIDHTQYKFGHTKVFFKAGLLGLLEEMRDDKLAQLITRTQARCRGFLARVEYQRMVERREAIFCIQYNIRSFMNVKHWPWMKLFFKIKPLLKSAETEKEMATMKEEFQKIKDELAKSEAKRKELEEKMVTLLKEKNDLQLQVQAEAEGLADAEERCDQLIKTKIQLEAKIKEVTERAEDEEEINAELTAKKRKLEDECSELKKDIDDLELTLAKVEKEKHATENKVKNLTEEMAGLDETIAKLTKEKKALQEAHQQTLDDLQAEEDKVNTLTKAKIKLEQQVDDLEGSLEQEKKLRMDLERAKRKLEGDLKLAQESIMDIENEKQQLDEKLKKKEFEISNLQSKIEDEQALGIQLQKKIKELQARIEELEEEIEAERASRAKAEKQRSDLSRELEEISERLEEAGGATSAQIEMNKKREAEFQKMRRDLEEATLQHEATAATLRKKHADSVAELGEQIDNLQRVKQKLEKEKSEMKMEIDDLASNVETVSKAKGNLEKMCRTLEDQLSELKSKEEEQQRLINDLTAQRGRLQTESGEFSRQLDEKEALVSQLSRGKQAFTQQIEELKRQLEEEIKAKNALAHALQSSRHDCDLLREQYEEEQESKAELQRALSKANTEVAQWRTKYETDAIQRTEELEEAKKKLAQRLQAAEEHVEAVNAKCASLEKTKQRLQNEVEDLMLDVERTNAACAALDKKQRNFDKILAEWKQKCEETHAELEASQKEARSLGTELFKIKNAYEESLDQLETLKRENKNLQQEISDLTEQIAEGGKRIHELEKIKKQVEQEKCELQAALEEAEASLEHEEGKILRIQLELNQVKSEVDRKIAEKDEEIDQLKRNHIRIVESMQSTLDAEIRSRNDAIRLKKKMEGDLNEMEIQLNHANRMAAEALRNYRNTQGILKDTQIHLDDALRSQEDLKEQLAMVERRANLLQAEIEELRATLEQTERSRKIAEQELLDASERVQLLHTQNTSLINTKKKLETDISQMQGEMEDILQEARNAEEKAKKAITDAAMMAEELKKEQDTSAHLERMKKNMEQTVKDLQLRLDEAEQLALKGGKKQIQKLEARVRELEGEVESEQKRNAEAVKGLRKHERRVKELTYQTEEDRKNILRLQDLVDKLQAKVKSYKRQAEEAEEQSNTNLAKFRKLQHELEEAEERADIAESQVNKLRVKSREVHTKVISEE
UniProt Q99836, whole entry, looked up: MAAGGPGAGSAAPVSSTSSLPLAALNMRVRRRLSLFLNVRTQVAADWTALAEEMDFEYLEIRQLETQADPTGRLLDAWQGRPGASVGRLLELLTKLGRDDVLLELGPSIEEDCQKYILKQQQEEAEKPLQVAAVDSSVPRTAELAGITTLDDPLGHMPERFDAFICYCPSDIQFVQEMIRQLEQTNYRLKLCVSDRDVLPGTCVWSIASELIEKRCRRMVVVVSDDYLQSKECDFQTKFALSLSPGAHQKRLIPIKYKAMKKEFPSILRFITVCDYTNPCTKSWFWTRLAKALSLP
UniProt Q9BTC8: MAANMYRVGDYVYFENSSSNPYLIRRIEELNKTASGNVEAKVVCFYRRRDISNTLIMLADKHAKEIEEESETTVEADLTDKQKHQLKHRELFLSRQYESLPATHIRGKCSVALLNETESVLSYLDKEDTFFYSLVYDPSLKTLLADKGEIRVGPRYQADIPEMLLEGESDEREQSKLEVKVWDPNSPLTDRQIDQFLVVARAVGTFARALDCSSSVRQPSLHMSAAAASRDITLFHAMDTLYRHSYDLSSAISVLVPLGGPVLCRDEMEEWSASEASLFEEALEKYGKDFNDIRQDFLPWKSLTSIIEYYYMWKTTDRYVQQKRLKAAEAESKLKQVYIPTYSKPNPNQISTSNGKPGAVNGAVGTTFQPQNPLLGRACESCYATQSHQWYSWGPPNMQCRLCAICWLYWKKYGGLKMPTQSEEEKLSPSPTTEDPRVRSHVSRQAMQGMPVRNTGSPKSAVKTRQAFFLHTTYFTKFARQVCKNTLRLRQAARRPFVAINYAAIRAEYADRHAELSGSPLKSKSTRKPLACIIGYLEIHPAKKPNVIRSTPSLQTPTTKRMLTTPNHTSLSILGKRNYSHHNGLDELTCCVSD
UniProt P08590, whole entry, looked up: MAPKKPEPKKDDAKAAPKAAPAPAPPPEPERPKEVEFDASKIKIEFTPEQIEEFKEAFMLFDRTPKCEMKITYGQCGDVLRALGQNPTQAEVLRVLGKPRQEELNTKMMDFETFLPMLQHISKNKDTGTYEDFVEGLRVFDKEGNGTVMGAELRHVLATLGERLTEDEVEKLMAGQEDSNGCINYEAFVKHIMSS
UniProt G3V1V0: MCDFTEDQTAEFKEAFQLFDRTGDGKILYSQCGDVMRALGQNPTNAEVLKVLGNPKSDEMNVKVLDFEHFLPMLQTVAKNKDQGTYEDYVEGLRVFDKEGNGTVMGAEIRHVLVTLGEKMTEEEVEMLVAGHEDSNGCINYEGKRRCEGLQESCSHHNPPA
UniProt Q93083: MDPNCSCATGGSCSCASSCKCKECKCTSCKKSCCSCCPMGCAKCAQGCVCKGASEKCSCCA
UniProt P46199: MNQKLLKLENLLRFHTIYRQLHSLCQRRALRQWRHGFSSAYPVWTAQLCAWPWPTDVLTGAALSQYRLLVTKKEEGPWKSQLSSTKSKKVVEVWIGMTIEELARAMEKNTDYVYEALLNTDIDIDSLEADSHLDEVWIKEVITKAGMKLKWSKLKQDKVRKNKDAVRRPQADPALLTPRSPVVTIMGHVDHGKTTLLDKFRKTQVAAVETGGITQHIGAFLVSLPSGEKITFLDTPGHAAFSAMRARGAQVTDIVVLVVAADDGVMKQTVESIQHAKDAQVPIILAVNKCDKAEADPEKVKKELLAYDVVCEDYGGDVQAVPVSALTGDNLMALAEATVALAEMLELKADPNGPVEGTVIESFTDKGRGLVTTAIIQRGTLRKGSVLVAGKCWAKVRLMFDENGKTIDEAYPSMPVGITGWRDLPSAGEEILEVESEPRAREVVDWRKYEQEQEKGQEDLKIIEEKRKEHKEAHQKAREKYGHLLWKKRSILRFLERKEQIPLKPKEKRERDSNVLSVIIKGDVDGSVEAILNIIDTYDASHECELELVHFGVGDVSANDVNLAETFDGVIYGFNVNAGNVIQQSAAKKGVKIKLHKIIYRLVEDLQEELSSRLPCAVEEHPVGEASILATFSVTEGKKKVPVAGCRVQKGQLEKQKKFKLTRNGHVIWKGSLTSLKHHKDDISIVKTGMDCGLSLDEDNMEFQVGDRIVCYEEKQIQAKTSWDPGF
UniProt Q9NPC7: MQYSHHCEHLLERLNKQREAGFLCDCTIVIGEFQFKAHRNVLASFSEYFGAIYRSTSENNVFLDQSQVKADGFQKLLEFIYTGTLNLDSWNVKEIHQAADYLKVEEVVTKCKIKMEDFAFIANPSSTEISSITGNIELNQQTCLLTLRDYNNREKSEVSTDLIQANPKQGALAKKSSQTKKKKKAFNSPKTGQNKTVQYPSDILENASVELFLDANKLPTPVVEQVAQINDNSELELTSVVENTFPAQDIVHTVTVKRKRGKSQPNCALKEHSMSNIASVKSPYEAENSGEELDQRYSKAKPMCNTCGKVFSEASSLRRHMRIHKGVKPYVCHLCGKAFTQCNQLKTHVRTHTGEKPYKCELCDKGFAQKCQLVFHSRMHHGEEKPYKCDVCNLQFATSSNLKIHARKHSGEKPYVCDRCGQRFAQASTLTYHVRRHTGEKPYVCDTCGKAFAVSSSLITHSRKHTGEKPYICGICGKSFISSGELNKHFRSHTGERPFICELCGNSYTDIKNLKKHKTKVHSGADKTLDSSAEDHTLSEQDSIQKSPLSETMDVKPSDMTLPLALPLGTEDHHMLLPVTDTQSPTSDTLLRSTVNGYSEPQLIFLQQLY
UniProt Q8TAX7: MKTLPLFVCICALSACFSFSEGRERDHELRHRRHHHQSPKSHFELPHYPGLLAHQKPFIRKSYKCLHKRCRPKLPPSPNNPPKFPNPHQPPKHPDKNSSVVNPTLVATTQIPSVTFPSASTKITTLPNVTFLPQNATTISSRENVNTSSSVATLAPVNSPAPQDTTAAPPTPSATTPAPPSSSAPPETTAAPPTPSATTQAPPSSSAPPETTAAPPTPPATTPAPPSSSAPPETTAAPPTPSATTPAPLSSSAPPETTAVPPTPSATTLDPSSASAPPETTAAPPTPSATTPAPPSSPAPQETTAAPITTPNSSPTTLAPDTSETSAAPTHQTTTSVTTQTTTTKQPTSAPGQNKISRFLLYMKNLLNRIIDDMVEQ
UniProt P84157: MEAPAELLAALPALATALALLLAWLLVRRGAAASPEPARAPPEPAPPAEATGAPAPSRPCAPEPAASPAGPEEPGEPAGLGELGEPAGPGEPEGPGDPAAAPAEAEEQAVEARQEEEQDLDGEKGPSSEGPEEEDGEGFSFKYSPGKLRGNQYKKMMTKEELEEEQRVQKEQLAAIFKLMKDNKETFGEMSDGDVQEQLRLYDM
UniProt P13640: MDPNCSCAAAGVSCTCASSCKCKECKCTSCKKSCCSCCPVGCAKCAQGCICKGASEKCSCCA
UniProt P05976, whole entry, looked up: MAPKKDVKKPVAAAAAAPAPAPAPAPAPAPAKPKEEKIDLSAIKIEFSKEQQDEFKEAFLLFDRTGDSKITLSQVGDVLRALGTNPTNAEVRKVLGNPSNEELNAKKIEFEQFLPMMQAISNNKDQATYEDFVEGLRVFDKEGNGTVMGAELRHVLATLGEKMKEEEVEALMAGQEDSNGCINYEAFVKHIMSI

What was measured:
Test in all cases: log2 fold change, soluble protein after heating vs DMSO (PISA); higher = thermal stabilisation; K562 cells, 10 uM, 30 min; active = over 0.2 and 3.5 SD of the protein, either way, in both replicates (recomputed)
erlotinib = compound: C#Cc1cccc(Nc2ncnc3cc(OCCOC)c(OCCOC)cc23)c1 [erlotinib]
Procedure, shortened: (§1)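 For each measurement, 10 μM compound was applied for 30 min to K562 cells at 2×10^6 cells/mL. Aliquots were heated for 3 min across 48°C-58°C, pooled, and extracted in PBS with 0.5% NP-40 at 4°C; the supernatant after 21,000xg for 90 min was soluble protein. This was quantified by TMTpro 16plex LC-MS/MS with channel sums equalised, and thermal stability was reported relative to control samples from duplicates, on a log2 fold-change scale.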

[1] = compound: C/C(=N\NC(=O)C1=CC(=CC=C1)S(=O)(=O)N2CCOCC2)/C3=C(C=CC(=C3)Cl)O
Procedure, shortened: as §1

[2] = compound: C1=CC(=CC=C1C2=NC3=C(N2)C=C(C=C3)C(=O)N)OC4=CC=C(C=C4)Cl
Procedure, shortened: as §1

[3] = compound: C1=CC2=C(C=CC(=C2)/C=C\3/C(=O)NC(=NCC4=CC=CS4)S3)N=C1
Procedure, shortened: as §1

[4] = compound: C1=CC2=NC=CN=C2C=C1/C=C/3\C(=O)NC(=O)S3
Procedure, shortened: as §1

[5] = compound: C1=CC=C(C=C1)C2=NC(=C(N2)C3=CC=NC=C3)C4=CC(=C(C=C4)Cl)O
Procedure, shortened: as §1

[6] = compound: C1=CC=C2C(=C1)C3=NNC4=CC=CC(=C43)C2=O
Procedure, shortened: as §1

[7] = compound: C1CCN(C1)C(=O)NC2=CC=CC(=C2)NC3=NC=C(C(=N3)NCCC4=CN=CN4)Br
Procedure, shortened: as §1

[8] = compound: C1CN(CCC1(CC2=CC=C(C=C2)Cl)N)C3=NC=NC4=C3C=CN4
Procedure, shortened: as §1

IRAK-1-4 Inhibitor I = compound: C1COCCN1CCN2C3=CC=CC=C3N=C2NC(=O)C4=CC(=CC=C4)[N+](=O)[O-] [IRAK-1-4 Inhibitor I]
Procedure, shortened: as §1

ibrutinib = compound: C=CC(=O)N1CCC[C@@H](n2nc(-c3ccc(Oc4ccccc4)cc3)c3c(N)ncnc32)C1 [ibrutinib]
Procedure, shortened: as §1

[9] = compound: CC(=O)c1cnc2ccc(-c3cc(Cl)c(O)c(Cl)c3)nc2c1N[C@H]1CC[C@H](CN(C)C)CC1
Procedure, shortened: as §1

ralimetinib = compound: CC(C)(C)Cn1c(N)nc2ccc(-c3[nH]c(C(C)(C)C)nc3-c3ccc(F)cc3)nc21 [ralimetinib]
Procedure, shortened: as §1

[10] = compound: CC(C)C1=C2N=C(C=C(N2N=C1)NCC3=CC=CC=C3)NCCCCCCN
Procedure, shortened: as §1

[11] = compound: CC(C)C[C@@H](C=O)NC(=O)[C@H](CC(C)C)NC(=O)[C@H](CC(C)C)NC(=O)OCc1ccccc1
Procedure, shortened: as §1

pinometostat = compound: CC(C)N(C[C@H]1O[C@@H](n2cnc3c(N)ncnc32)[C@H](O)[C@@H]1O)[C@H]1C[C@@H](CCc2nc3cc(C(C)(C)C)ccc3[nH]2)C1 [pinometostat]
Procedure, shortened: as §1

[12] = compound: CC1=C(C2=C(C=C1)C(=O)C3=CC=CC=C3N2CCCN)C
Procedure, shortened: as §1

[13] = compound: C1=CC(=C(C=C1Cl)C2=NC3=NC=CN=C3C(=N2)NC4=CC=NC=C4)F
Procedure, shortened: as §1

[14] = compound: CC(C)(O)CC(=O)NCCn1ccc2ncnc(Nc3ccc(Oc4cccc(C(F)(F)F)c4)c(Cl)c3)c21
Procedure, shortened: as §1

[15] = compound: CC1=C(C(CC(=O)N1)C2=CC=C(C=C2)C(F)(F)F)C(=O)NC3=C(C=C4C(=C3)C=NN4)F
Procedure, shortened: as §1

Measured: log2 fold change

MT-ND2 (UniProt P03891)
inactive: erlotinib -0.067 | [1] -0.063 | [2] 0.062 | [3] -0.108 | [4] 0.104 | [5] 0.116 | [6] 0.044 | [7] -0.016 | [8] -0.093 | IRAK-1-4 Inhibitor I -0.021 | ibrutinib -0.042 | [9] -0.171 | ralimetinib -0.119 | [10] -0.221 | [11] -0.089 | pinometostat -0.075 | [12] 0.113

MT-CO3 (UniProt P00414)
inactive: [1] 0.204 | [3] 0.178 | [5] -0.005 | [6] -0.002 | [7] -0.138 | [8] 0.152 | IRAK-1-4 Inhibitor I 0.048 | [9] -0.158 | ralimetinib -0.018 | [11] -0.042 | pinometostat 0.035 | [12] 0.234

MYH2 (UniProt Q9UKX2)
inactive: [4] -0.103 | ibrutinib -0.066

MYD88 isoform 6 (UniProt Q99836)
inactive: [1] 0.204 | [13] 0.092 | [3] -0.067 | [4] 0.05 | [6] 0.134 | IRAK-1-4 Inhibitor I -0.312 | ibrutinib -0.047 | [9] -0.066 | [14] -0.052 | pinometostat 0.216 | [15] 0.116

MYH3 (UniProt P11055)
inactive: erlotinib -0.148 | [2] -0.139 | [4] -0.295 | [7] -0.03 | [8] 0.045 | ibrutinib -0.009 | [10] -0.095 | [15] 0.017 | [12] -0.044

MTMR1 (UniProt Q13613)
inactive: [1] 0.088 | [13] -0.137 | [3] 0.157 | [4] 0.01 | [5] -0.012 | [6] -0.09 | [7] -0.096 | [8] -0.098 | IRAK-1-4 Inhibitor I -0.019 | ibrutinib -0.038 | [9] -0.174 | ralimetinib 0.072 | [14] -0.04 | [11] 0.188 | pinometostat 0 | [12] 0.085

Looked up one by one from the list above, two records:
MTMR1 (UniProt Q13613)
inactive: [1] 0.088 | [13] -0.137 | [3] 0.157 | [4] 0.01 | [5] -0.012 | [6] -0.09 | [7] -0.096 | [8] -0.098 | IRAK-1-4 Inhibitor I -0.019 | ibrutinib -0.038 | [9] -0.174 | ralimetinib 0.072 | [14] -0.04 | [11] 0.188 | pinometostat 0 | [12] 0.085

MYH2 (UniProt Q9UKX2)
inactive: [4] -0.103 | ibrutinib -0.066

(next part)

MTA3 (UniProt Q9BTC8)
inactive: erlotinib -0.04 | [13] 0.039 | [2] -0.08 | [7] 0.116 | [8] 0.037 | [14] -0.335 | [10] 0.124 | [12] -0.109

MYL3 (UniProt P08590)
inactive: erlotinib -0.003 | [2] 0.031 | [4] 0.051 | [5] 0 | IRAK-1-4 Inhibitor I 0.082 | ibrutinib 0.076 | ralimetinib -0.067 | [10] -0.049 | [11] 0.013 | pinometostat 0.018 | [15] 0.049

MYL6 (UniProt G3V1V0)
inactive: erlotinib -0.034 | [1] -0.003 | [2] -0.112 | [3] -0.006 | [4] 0.168 | [5] -0.027 | [6] -0.087 | [7] -0.021 | [8] 0.087 | ibrutinib -0.079 | [9] 0.094 | ralimetinib -0.127 | [10] 0.067 | [11] 0.06 | [12] 0.034

MT1L (UniProt Q93083)
inactive: erlotinib -0.003 | [1] -0.244 | [2] 0 | [3] 0.177 | [5] 0.028 | [6] -0.136 | [7] 0.187 | [8] 0.245 | [9] 0.146 | ralimetinib -0.014 | [10] 0.056 | [11] 0.146 | [15] 0.001 | [12] -0.333

MRPS14 (UniProt O60783)
inactive: [1] 0.012 | [13] 0.091 | [3] 0.154 | [4] -0.004 | [5] 0.049 | [6] 0.025 | [7] 0.214 | [8] -0.032 | IRAK-1-4 Inhibitor I -0.003 | ibrutinib -0.03 | [9] -0.016 | ralimetinib 0.05 | [14] -0.183 | [11] 0.101 | pinometostat 0.068 | [15] 0.016 | [12] -0.122

MTIF2 (UniProt P46199)
inactive: [13] -0.092 | [14] 0.154

MYNN (UniProt Q9NPC7)
inactive: [5] -0.095 | ralimetinib 0.167 | [11] 0.117

MUC7 (UniProt Q8TAX7)
inactive: [13] -0.884 | [4] -0.113 | [5] -0.844 | ibrutinib 0.113 | ralimetinib -0.167 | [14] 0.115 | [11] 0.486 | [15] 0.034

MXRA7 isoform 3 (UniProt P84157)
inactive: [5] -0.08 | ralimetinib -0.031 | [11] 0.151

MT1G (UniProt P13640)
inactive: erlotinib -0.009 | [1] -0.076 | [2] 0 | [3] -0.081 | [4] 0.104 | [5] 0.093 | [6] -0.098 | [7] 0 | [8] 0.175 | IRAK-1-4 Inhibitor I 0.014 | ibrutinib 0.035 | [9] 0.018 | ralimetinib -0.029 | [10] 0.148 | [11] -0.042 | pinometostat -0.073 | [15] 0.091 | [12] -0.093

MYL1 (UniProt P05976)
inactive: [4] 0.033 | ibrutinib 0.002
